Data as given in PubChem BioAssay AID1224826 (NIAID, 2016)
In all, the deposit lists about 17,000 reagents; shown is an unselected part. Over the whole deposit, about 1,110 (6.6%) were called active. 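Active means lowered or raised reporter signal; replicate intensities are raw and not normalised per plate.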 Reagents against one gene are numbered here.

- Screen: 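Regulators of Tlr4 signalling leading to Tnf-alpha expression in macrophages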 (primary screen)
- Cell system: RAW264.7 G9 macrophages from mouse bearing reporters for p65 (GFP) and the Tnf promoter (mCherry)
- Reagent: siRNA pool against mouse genes, 100 nM
- Duration: 16 h of LPS stimulation, after 2 days of siRNA transfection
- Conditions: bacterial lipopolysaccharide (Salmonella minnesota R595), 10 ng/ml
- Measured: 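Nuclear mCherry signal of the Tnf promoter reporter measured by imaging after background removal, scaled to each plate median and turned into robust z-scores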
- Direction: Tnf reporter robust z-score: higher = stronger Tnf promoter reporter signal after LPS; Tnf reporter intensity: higher = stronger Tnf promoter reporter signal
- Call rule: 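a well counts as active at a score of -1.3 or below (Tlr4 knock-down control median) or above 3 (raised signal); controls and wells holding fewer than 50 cells are excluded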
- Calls: active = Tnf reporter clearly lowered or raised; inactive = no clear change in Tnf reporter

no.	gene	reagent no.	Tnf reporter robust z-score	fewer than 50 cells in well	Tnf reporter intensity, replicate 1	Tnf reporter intensity, replicate 2	activity call
1	Prkab1 (protein kinase, AMP-activated, beta 1 non-catalytic subunit)	1	-1.44	enough cells in well	124	102	active
2	Pja2 (praja ring finger ubiquitin ligase 2)	1	2.78	enough cells in well	306	196	inactive
3	Arhgef1 (Rho guanine nucleotide exchange factor 1)	1	-1.4	enough cells in well	92.7	85.2	active
4	Or2b28 (olfactory receptor family 2 subfamily B member 28)	1	-0.33	enough cells in well	185	90.3	inactive
5	Psme2b (protease (prosome, macropain) activator subunit 2B)	1		fewer than 50 cells per well; well left out of calls	56.8	103	inactive
6	Slc38a5	1	-0.6	enough cells in well	133	138	inactive
7	Rnf17 (ring finger protein 17)	1	0.83	enough cells in well	171	156	inactive
8	Ros1 (Ros1 proto-oncogene, receptor tyrosine kinase)	1	-0.72	enough cells in well	142	128	inactive
9	Rnf122 (ring finger protein 122)	1	1.12	enough cells in well	295	115	inactive
10	Gcfc2 (GC-rich sequence DNA binding factor 2)	1	-0.36	enough cells in well	148	147	inactive
11	Ube2f (ubiquitin-conjugating enzyme E2F (putative))	1	-0.71	enough cells in well	191	74.7	inactive
12	Flt3l (FMS-like tyrosine kinase 3 ligand)	1	-0.23	enough cells in well	278	180	inactive
13	Thoc5 (THO complex 5)	1	-0.94	enough cells in well	195	75.9	inactive
14	Gdf1 (growth differentiation factor 1)	1	-0.37	enough cells in well	171	150	inactive
15	Nme6 (NME/NM23 nucleoside diphosphate kinase 6)	1	-0.23	enough cells in well	213	119	inactive
16	Gabrg3 (gamma-aminobutyric acid type A receptor, subunit gamma 3)	1	0.26	enough cells in well	282	254	inactive
17	Gabrg3 (gamma-aminobutyric acid type A receptor, subunit gamma 3)	2	0.92	enough cells in well	266	175	inactive
18	Nkx6-2 (NK6 homeobox 2)	1	-0.93	enough cells in well	121	109	inactive
19	4921524J17Rik (RIKEN cDNA 4921524J17 gene)	1	1.08	enough cells in well	280	59.6	inactive
20	Usp20 (ubiquitin specific peptidase 20)	1	-0.44	enough cells in well	193	198	inactive
21	Spsb4 (splA/ryanodine receptor domain and SOCS box containing 4)	1		fewer than 50 cells per well; well left out of calls	101	91.5	inactive
22	Inpp4a (inositol polyphosphate-4-phosphatase, type I)	1	-0.34	enough cells in well	216	130	inactive
23	Imp4 (IMP4, U3 small nucleolar ribonucleoprotein)	1	3.3	enough cells in well	383	353	active
24	Rem2 (rad and gem related GTP binding protein 2)	1	1.21	enough cells in well	154	206	inactive
25	A530095I07Rik (RIKEN cDNA A530095I07 gene)	1	0.44	enough cells in well	165	210	inactive
26	Lce3b (late cornified envelope 3B)	1		fewer than 50 cells per well; well left out of calls	49.6	57.5	inactive
27	Ptgs2 (prostaglandin-endoperoxide synthase 2)	1	-0.99	enough cells in well	141	148	inactive
28	Foxl2 (forkhead box L2)	1	-0.6	enough cells in well	220	174	inactive
29	Or9s13 (olfactory receptor family 9 subfamily S member 13)	1	-1.5	enough cells in well	83.6	81.5	active
30	Pptc7 (PTC7 protein phosphatase homolog)	1	-0.06	enough cells in well	142	169	inactive
31	Aoc2 (amine oxidase copper containing 2)	1	-1.02	enough cells in well	143	116	inactive
32	Rab29 (RAB29, member RAS oncogene family)	1	0.1	enough cells in well	378	173	inactive
33	A730027B03Rik (retired record)	1	0.47	enough cells in well	204	172	inactive
34	Eln (elastin)	1	0.65	enough cells in well	283	277	inactive
35	Gfer (growth factor, augmenter of liver regeneration)	1	-0.14	enough cells in well	244	225	inactive
36	Bet1l (Bet1 golgi vesicular membrane trafficking protein like)	1		fewer than 50 cells per well; well left out of calls	113	204	inactive
37	Lpin2 (lipin 2)	1	-0.12	enough cells in well	183	136	inactive
38	Mettl13	1	0.33	enough cells in well	156	201	inactive
39	Firrm (FIGNL1 interacting regulator of recombination and mitosis)	1	0.81	enough cells in well	229	197	inactive
40	1110004F10Rik (RIKEN cDNA 1110004F10 gene)	1	1.34	enough cells in well	404	128	inactive
41	Gngt2	1	-0.37	enough cells in well	202	152	inactive
42	Mst1r	1		fewer than 50 cells per well; well left out of calls	162	143	inactive
43	Enpp2 (ectonucleotide pyrophosphatase/phosphodiesterase 2)	1	0.17	enough cells in well	198	363	inactive
44	Myo1b (myosin IB)	1	-1.17	enough cells in well	154	55.2	inactive
45	Dnajb1 (DnaJ heat shock protein family (Hsp40) member B1)	1	4.33	enough cells in well	381	335	active
46	Nckap5 (NCK-associated protein 5)	1	-0.13	enough cells in well	188	157	inactive
47	Hprt1 (hypoxanthine phosphoribosyltransferase 1)	1	1.02	enough cells in well	326	247	inactive
48	Pnlip (pancreatic lipase)	1	0.14	enough cells in well	264	196	inactive
49	Rpa1 (replication protein A1)	1	2.39	enough cells in well	236	179	inactive
50	Lefty2 (left-right determination factor 2)	1	1.58	enough cells in well	355	350	inactive
51	Kif18a (kinesin family member 18A)	1	1	enough cells in well	327	196	inactive
52	Trhr2 (thyrotropin releasing hormone receptor 2)	1	1.63	enough cells in well	182	145	inactive
53	Mia3 (MIA SH3 domain ER export factor 3)	1	-0.95	enough cells in well	101	108	inactive
54	Gnb4 (guanine nucleotide binding protein (G protein), beta 4)	1	1.05	enough cells in well	236	498	inactive
55	Fbxl19 (F-box and leucine-rich repeat protein 19)	1	-0.71	enough cells in well	0	123	inactive
56	Tmem150b (transmembrane protein 150B)	1	1.16	enough cells in well	234	348	inactive
57	Gm839 (predicted gene 839)	1	0.68	enough cells in well	311	196	inactive
58	Pias2 (protein inhibitor of activated STAT 2)	1	1.01	enough cells in well	356	272	inactive

Limited to “Tnf reporter robust z-score”, for 6 of the entries above:
Foxl2 (forkhead box L2)	-0.6
Or9s13 (olfactory receptor family 9 subfamily S member 13)	-1.5
Pptc7 (PTC7 protein phosphatase homolog)	-0.06
Aoc2 (amine oxidase copper containing 2)	-1.02
Rab29 (RAB29, member RAS oncogene family)	0.1
A730027B03Rik (retired record)	0.47
